Paper PMC12638486

Tested on: CREB1 (recombinant)
Test: EMSA
Conditions: Beyotime EMSA kit, non-denaturing gel, chemiluminescent biotin detection, pH and temperature not stated, commercial protein, label: 5' biotin on forward strand

Sequence | binding result (binding stated as negligible, weaker than G probe) | binding result
AAGCCCTTCGATGTAAACGCATAT (double strand) [WT probe (rs1544105 A)] | no binding | 
AAGCCCTTCGACGTAAACGCATAT (double strand) [Mut probe (rs1544105 G)] |  | binds

Construct, isoform or probe ends are uncertain for at least one entry. A negative result means that nothing was seen under these conditions.
